The experiment addresses LIM domain and actin binding 1 (LIMA1) (human (endogenous in Huh7)) (UniProt Q9UHB6). The experiment is described as follows: co-IP; endogenous proteins of Huh7 cells lysed with NP-40 and 1% PMSF; Pierce Magnetic IP/Co-IP Kit; western blotting.

Sequences of proteins named here, by UniProt entry; tags and fusion partners are left off. A change or cut given only in a name is not applied to a line headed by its entry.
UniProt Q9UHB6: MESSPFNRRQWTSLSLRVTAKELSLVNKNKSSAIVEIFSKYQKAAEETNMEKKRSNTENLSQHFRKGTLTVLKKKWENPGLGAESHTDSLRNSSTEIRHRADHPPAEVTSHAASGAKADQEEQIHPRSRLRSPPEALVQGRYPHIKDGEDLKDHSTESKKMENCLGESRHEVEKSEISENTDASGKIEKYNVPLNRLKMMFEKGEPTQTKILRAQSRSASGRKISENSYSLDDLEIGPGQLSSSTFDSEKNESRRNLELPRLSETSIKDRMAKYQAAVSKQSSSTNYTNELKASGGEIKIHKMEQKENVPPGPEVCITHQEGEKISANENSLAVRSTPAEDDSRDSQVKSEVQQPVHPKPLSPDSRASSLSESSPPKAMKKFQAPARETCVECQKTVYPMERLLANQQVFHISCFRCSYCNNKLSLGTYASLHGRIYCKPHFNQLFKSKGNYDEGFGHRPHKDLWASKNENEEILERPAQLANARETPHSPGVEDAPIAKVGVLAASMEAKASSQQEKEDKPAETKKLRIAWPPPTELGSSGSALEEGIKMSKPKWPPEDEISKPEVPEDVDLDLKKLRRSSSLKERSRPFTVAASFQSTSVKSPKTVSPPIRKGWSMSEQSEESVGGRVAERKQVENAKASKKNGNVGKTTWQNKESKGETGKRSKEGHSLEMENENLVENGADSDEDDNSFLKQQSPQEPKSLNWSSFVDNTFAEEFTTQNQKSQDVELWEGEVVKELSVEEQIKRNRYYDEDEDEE
UniProt O95831: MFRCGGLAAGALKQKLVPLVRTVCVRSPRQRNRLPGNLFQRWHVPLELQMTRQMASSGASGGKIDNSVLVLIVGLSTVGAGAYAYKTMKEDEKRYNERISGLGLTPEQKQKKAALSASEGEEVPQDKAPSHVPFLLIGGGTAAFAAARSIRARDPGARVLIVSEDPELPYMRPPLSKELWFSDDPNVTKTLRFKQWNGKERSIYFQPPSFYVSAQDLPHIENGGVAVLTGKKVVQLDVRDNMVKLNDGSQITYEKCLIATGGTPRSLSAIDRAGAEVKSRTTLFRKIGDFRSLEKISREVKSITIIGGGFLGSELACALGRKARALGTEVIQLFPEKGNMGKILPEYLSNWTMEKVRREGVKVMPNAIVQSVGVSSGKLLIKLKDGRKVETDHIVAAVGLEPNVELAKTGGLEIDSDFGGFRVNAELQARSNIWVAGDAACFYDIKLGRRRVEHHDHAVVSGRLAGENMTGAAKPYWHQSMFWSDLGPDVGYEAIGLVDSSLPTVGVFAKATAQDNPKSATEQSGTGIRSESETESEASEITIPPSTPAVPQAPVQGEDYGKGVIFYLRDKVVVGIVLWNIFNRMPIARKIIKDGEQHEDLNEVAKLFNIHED

These are yes or no findings as the source states them, for the method shown. In cells and extracts the contact can be indirect.

AIFM1 (from UniProt O95831): the binding result is on record as “no binding”.

These data come from PMC9740131.
